PubChem BioAssay AID1053208, Peter MacCallum Cancer Centre – 2014
Test: 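Synthetic lethal interactions between gene loss and doxorubicin in osteosarcoma cells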 (primary screen). Cell system: mouse osteosarcoma cells, early-passage culture from an engineered mouse model of fibroblastic bone tumour. Reagent: siRNA pool against mouse genes, 40 nM. Timing: about 120 h (48 h before drug, then 72 h with drug). Conditions: doxorubicin 100 nM for 72 h, roughly 30-40% inhibitory dose. Detection: 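Luminescent ATP signal taken as viability with or without 100 nM doxorubicin for 72 h; mean of two wells set against non-targeting siRNA and turned into robust z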. Reading the numbers: viability z-score with doxorubicin: higher = more viable cells under doxorubicin; viability z-score without drug: higher = more viable cells with knock-down alone. Rule for the call: 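Called active if knock-down leaves viability unchanged without drug (z within -2 to 2) but lowers it with doxorubicin (z at or under -2)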.
The whole screen tested about 17,000 reagents; this is an unselected part. Over the whole deposit, 788 (4.7%) are marked active. 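Calls rest on z-score classes alone; an extra cut-off of viability at most 70% of control was not applied to them.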 Some reagents were tested in more than one well and are listed for each. Further read-outs or replicates are left out here. No sequences are given here.

{"target": "Pdzk1ip1", "combined z-score class": "no change with or without drug", "viability z-score with doxorubicin": -1.69, "viability z-score without drug": -0.51, "Outcome": "inactive"}
{"target": "Cyp2a12", "combined z-score class": "no change with or without drug", "viability z-score with doxorubicin": 0.79, "viability z-score without drug": 1.85, "Outcome": "inactive"}
{"target": "D930030K17Rik", "combined z-score class": "no change with or without drug", "viability z-score with doxorubicin": -0.22, "viability z-score without drug": -0.51, "Outcome": "inactive"}
{"target": "Preb", "combined z-score class": "no change with or without drug", "viability z-score with doxorubicin": 1.57, "viability z-score without drug": 0.84, "Outcome": "inactive"}
{"target": "Dbnl", "combined z-score class": "no change with or without drug", "viability z-score with doxorubicin": 0, "viability z-score without drug": -0.34, "Outcome": "inactive"}
{"target": "Jmjd4", "combined z-score class": "no change with or without drug", "viability z-score with doxorubicin": -0.22, "viability z-score without drug": -1.18, "Outcome": "inactive"}
{"target": "Foxi1", "combined z-score class": "no change with or without drug", "viability z-score with doxorubicin": 1.69, "viability z-score without drug": 1.52, "Outcome": "inactive"}
{"target": "Sgsm2", "combined z-score class": "no change with or without drug", "viability z-score with doxorubicin": 1.01, "viability z-score without drug": -0.17, "Outcome": "inactive"}
{"target": "Spink2", "combined z-score class": "no change with or without drug", "viability z-score with doxorubicin": 0.45, "viability z-score without drug": -0.17, "Outcome": "inactive"}
{"target": "Nkx2-1", "combined z-score class": "no change with or without drug", "viability z-score with doxorubicin": -0.56, "viability z-score without drug": -0.51, "Outcome": "inactive"}
{"target": "Mast4", "combined z-score class": "no change with or without drug", "viability z-score with doxorubicin": 1.24, "viability z-score without drug": 0.17, "Outcome": "inactive"}
{"target": "Ptp4a2", "combined z-score class": "no change with or without drug", "viability z-score with doxorubicin": 1.57, "viability z-score without drug": 1.52, "Outcome": "inactive"}
{"target": "Cdkn2c", "combined z-score class": "no change with or without drug", "viability z-score with doxorubicin": -0.11, "viability z-score without drug": 0, "Outcome": "inactive"}
{"target": "Sptlc1", "combined z-score class": "no change with or without drug", "viability z-score with doxorubicin": -0.45, "viability z-score without drug": 0.34, "Outcome": "inactive"}
{"target": "Pdlim5", "combined z-score class": "no change with or without drug", "viability z-score with doxorubicin": 1.12, "viability z-score without drug": -1.01, "Outcome": "inactive"}
{"target": "Pdlim5", "combined z-score class": "no change with or without drug", "viability z-score with doxorubicin": -1.57, "viability z-score without drug": 1.35, "Outcome": "inactive"}
{"target": "Nrgn", "combined z-score class": "high cell count with and without drug", "viability z-score with doxorubicin": 2.02, "viability z-score without drug": 2.19, "Outcome": "inactive"}
{"target": "Cdc42bpg", "combined z-score class": "no change with or without drug", "viability z-score with doxorubicin": 0.45, "viability z-score without drug": -0.17, "Outcome": "inactive"}
{"target": "Zbtb22", "combined z-score class": "no change with or without drug", "viability z-score with doxorubicin": -0.67, "viability z-score without drug": 1.85, "Outcome": "inactive"}
{"target": "Sema6a", "combined z-score class": "no change with or without drug", "viability z-score with doxorubicin": 0.34, "viability z-score without drug": -0.17, "Outcome": "inactive"}
{"target": "Gpr63", "combined z-score class": "no change with or without drug", "viability z-score with doxorubicin": 0, "viability z-score without drug": 0.17, "Outcome": "inactive"}
{"target": "Luc7l2", "combined z-score class": "no change with or without drug", "viability z-score with doxorubicin": -1.8, "viability z-score without drug": -1.18, "Outcome": "inactive"}
{"target": "Tcp1", "combined z-score class": "low cell count without drug only", "viability z-score with doxorubicin": -0.45, "viability z-score without drug": -8.43, "Outcome": "inactive"}
{"target": "H2-Eb1", "combined z-score class": "no change with or without drug", "viability z-score with doxorubicin": 0, "viability z-score without drug": 0.17, "Outcome": "inactive"}
{"target": "Or1e1f", "combined z-score class": "no change with or without drug", "viability z-score with doxorubicin": 0.22, "viability z-score without drug": 0.84, "Outcome": "inactive"}
{"target": "Insr", "combined z-score class": "no change with or without drug", "viability z-score with doxorubicin": -0.56, "viability z-score without drug": 0.51, "Outcome": "inactive"}
{"target": "Ccdc187", "combined z-score class": "no change with or without drug", "viability z-score with doxorubicin": -1.12, "viability z-score without drug": 0.84, "Outcome": "inactive"}
{"target": "Zdhhc14", "combined z-score class": "no change with or without drug", "viability z-score with doxorubicin": 1.01, "viability z-score without drug": 0, "Outcome": "inactive"}
{"target": "Pip5k1c", "combined z-score class": "no change with or without drug", "viability z-score with doxorubicin": -0.34, "viability z-score without drug": 1.85, "Outcome": "inactive"}
{"target": "Dlx1", "combined z-score class": "no change with or without drug", "viability z-score with doxorubicin": -0.56, "viability z-score without drug": 1.01, "Outcome": "inactive"}
{"target": "4632415L05Rik", "combined z-score class": "no change with or without drug", "viability z-score with doxorubicin": 0.34, "viability z-score without drug": 0.17, "Outcome": "inactive"}
{"target": "Tor3a", "combined z-score class": "no change with or without drug", "viability z-score with doxorubicin": 0.9, "viability z-score without drug": 0.17, "Outcome": "inactive"}
{"target": "Wasf3", "combined z-score class": "no change with or without drug", "viability z-score with doxorubicin": -0.79, "viability z-score without drug": -0.51, "Outcome": "inactive"}
{"target": "Slc9a6", "combined z-score class": "no change with or without drug", "viability z-score with doxorubicin": -0.22, "viability z-score without drug": -0.17, "Outcome": "inactive"}
{"target": "Snph", "combined z-score class": "no change with or without drug", "viability z-score with doxorubicin": -0.67, "viability z-score without drug": -1.85, "Outcome": "inactive"}
{"target": "Ggnbp2", "combined z-score class": "no change with or without drug", "viability z-score with doxorubicin": -0.67, "viability z-score without drug": -0.84, "Outcome": "inactive"}

A portion taken from the entries so far, as a working copy:
{"target": "Foxi1", "combined z-score class": "no change with or without drug", "viability z-score with doxorubicin": 1.69, "viability z-score without drug": 1.52, "Outcome": "inactive"}
{"target": "Sgsm2", "combined z-score class": "no change with or without drug", "viability z-score with doxorubicin": 1.01, "viability z-score without drug": -0.17, "Outcome": "inactive"}
{"target": "Spink2", "combined z-score class": "no change with or without drug", "viability z-score with doxorubicin": 0.45, "viability z-score without drug": -0.17, "Outcome": "inactive"}
